Assay results taken from the supplement of paper PMC12067093, “Discovery and optimisation of a covalent ligand for TRIM25 and its application to targeted protein ubiquitination” (Chemical Science, 2025).
This is one part of the list.

The targets below were run with CC1Cc2ccccc2N1C(=O)C1CCCN(C1)C(=O)CCl (mixture of isomers) [TRIM25 ligand 11 (diastereomer mixture)] (assay: probe-labelled cysteine peptide fold change vs DMSO (competition) (log2 fold change); higher = less target engagement (more negative = stronger competition)). Details: 50 µM; THP-1; incubation time: 4 h.
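Further: competitive chemoproteomic profiling in live THP-1 cells with an iodoacetamide desthiobiotin (IA-DTB) probe, comparing probe-labelled peptide intensities in compound-treated cells against DMSO-treated controls.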

| Target | probe-labelled cysteine peptide fold change |
| --- | --- |
| GOLGA4_Q13439_1269_TCTVSELEAQLR (UniProt Q13439) | -0.107 |
| GLA_P06280_378_GVACNPACFITQLLPVKR (UniProt P06280) | -0.018 |
| GNB2_P62879_294_LLLAGYDDFNCNIWDAMK (UniProt P62879) | 0.0612 |
| GK_P32189_421_DCGIPLSHLQVDGGMTSNK (UniProt P32189) | 0.119 |
| GOLGB1_Q14789_681_SLSAVPDIGQCHQDELER (UniProt Q14789) | -0.0481 |
| GNL3L_Q9NVN8_490_IGDLTGYCTNPNR (UniProt Q9NVN8) | -0.179 |
| GOLGB1_Q14789_3144_SDPEELREPQQSFSEAQQQLCNTR (UniProt Q14789) | -0.0107 |
| GNAI2_P04899_140_RLWADHGVQACFGR (UniProt P04899) | 0.0431 |
| GNAQ_P50148_9_TLESIMACCLSEEAK (UniProt P50148) | 0.016 |
| GOT2_P00505_272_HFIEQGINVCLCQSYAK (UniProt P00505) | 0.191 |
| GOLGB1_Q14789_2664_RIAELEEELVCVQK (UniProt Q14789) | 0.115 |
| GIT2_Q14161_235_LAFYLCGR (UniProt Q14161) | -0.00883 |
| GMIP_Q9P107_508_ECEAFMVSGTECEECFLTCHK (UniProt Q9P107) | -0.0785 |
| GLRX2_Q9NS18_153_LLPLVHQCYLK (UniProt Q9NS18) | -0.00654 |
| GNB1_P62873_204_LFVSGACDASAK (UniProt P62873) | -0.0331 |
| GNL1_P36915_517_LSLCFHPPGYSEQK (UniProt P36915) | -0.0557 |
| GLB1_P16278_393_TVGAALDILCPSGPIK (UniProt P16278) | -0.153 |
| GLIPR1_P48060_156_VGCAVQFCPK (UniProt P48060) | -0.107 |

A stretch taken from the entries so far:

| Target | probe-labelled cysteine peptide fold change |
| --- | --- |
| GNAI2_P04899_140_RLWADHGVQACFGR (UniProt P04899) | 0.0431 |
| GNAQ_P50148_9_TLESIMACCLSEEAK (UniProt P50148) | 0.016 |
| GOT2_P00505_272_HFIEQGINVCLCQSYAK (UniProt P00505) | 0.191 |

Following part.

| Target | probe-labelled cysteine peptide fold change |
| --- | --- |
| GLOD4_Q9HC38_171_SLNYWCNLLGMK (UniProt Q9HC38) | -0.119 |
| GOT2_P00505_106_EYLPIGGLAEFCK (UniProt P00505) | 0.0569 |
| GOT2_P00505_272+274_HFIEQGINVCLCQSYAK (UniProt P00505) | 0.283 |
| GLB1_P16278_426_TTLPQDCSNPAPLSSPLNGVHDR (UniProt P16278) | -0.0549 |
| GLG1_Q92896_316_HLYFACR (UniProt Q92896) | 0.198 |
| GPD2_P43304_546_EYACTAVDMISR (UniProt P43304) | 0.0509 |
| GLG1_Q92896_671_TETGQELECLQDHLDDLVVECR (UniProt Q92896) | -0.00969 |
| GOLGA4_Q13439_1862_ELDSCLVR (UniProt Q13439) | 0.0304 |
| GLA_P06280_378+382_GVACNPACFITQLLPVKR (UniProt P06280) | 0.0595 |
| GOSR1_O95249_34_LCTSYSHSSTR (UniProt O95249) | -0.189 |
| GMPPA_Q96IJ6_154_TQSLNYGCIVENPQTHEVLHYVEK (UniProt Q96IJ6) | -0.131 |
| GOLPH3_Q9H4A6_280_QLLDLDPEVECLK (UniProt Q9H4A6) | -0.112 |
| GNB1_P62873_149_ELAGHTGYLSCCR (UniProt P62873) | 0.0662 |
| GLMP_Q8WWB7_216_LLHTADTCQLEVALIGASPR (UniProt Q8WWB7) | -0.301 |
| GNPDA2_Q8TDQ7_239_TIFVCDEDATLELR (UniProt Q8TDQ7) | 0.0344 |
| GNL3_Q9BVP2_158_CPQVEEAIVQSGQK (UniProt Q9BVP2) | 0.0585 |
| GLUL_P15104_183_ACLYAGVK (UniProt P15104) | 0.118 |
| GNPDA2_Q8TDQ7_118_HIDIDPNNAHILDGNAADLQAECDAFENK (UniProt Q8TDQ7) | 0.0113 |
